## Primary screen of a compound library

Sequences of proteins named here, by UniProt entry; tags and fusion partners are left off.
UniProt E9BF75, entry or part of it: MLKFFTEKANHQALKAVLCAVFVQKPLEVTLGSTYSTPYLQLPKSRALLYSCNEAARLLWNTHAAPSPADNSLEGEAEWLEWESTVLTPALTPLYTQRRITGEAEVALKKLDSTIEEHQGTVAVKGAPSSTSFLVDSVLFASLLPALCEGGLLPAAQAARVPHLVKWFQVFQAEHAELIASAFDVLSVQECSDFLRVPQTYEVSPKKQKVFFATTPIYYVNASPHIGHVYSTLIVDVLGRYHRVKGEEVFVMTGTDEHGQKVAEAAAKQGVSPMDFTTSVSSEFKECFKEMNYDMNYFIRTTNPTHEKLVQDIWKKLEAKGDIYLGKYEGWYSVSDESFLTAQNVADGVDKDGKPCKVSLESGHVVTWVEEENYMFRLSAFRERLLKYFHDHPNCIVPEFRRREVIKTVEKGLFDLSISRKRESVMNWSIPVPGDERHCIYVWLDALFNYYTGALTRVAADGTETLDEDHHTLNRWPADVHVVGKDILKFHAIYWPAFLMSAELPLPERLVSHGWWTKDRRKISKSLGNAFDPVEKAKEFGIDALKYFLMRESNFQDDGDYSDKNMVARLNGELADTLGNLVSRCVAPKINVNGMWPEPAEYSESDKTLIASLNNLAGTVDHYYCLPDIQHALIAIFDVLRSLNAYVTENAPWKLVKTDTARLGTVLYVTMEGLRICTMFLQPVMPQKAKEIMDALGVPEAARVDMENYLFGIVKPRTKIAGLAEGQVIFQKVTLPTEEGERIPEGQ

The values are deposited in ChEMBL (CHEMBL3988442, “University of Dundee, Small-Polar-MMV Screening Library” (2021)).

Mtb heat-shock: 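Assay on Mycobacterium tuberculosis, filed only as a heat shock assay from Cornell; the read-out is not stated. The concentration is filed as 10 mM, unlikely as a test dose, so the dose is not known. Direction is inferred from retests: higher values go with stronger inhibition. Of about 69,000 compounds tested this way, about 930 (1.4%) reached 50% or more in at least one test.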
Mtb growth Cornell: 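Whole-cell assay for inhibitors of Mycobacterium tuberculosis growth, labelled Cornell in the record; the read-out is not stated. The concentration is filed as 10 mM, unlikely as a test dose, so the dose is not known. Higher means stronger inhibition (inferred from two other growth screens of the library). Size under these conditions: about 53,000 compounds, about 900 of them at 50% or above in at least one test.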
LdMetRS: 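Methionyl-tRNA synthetase (putative), Leishmania donovani (UniProt E9BF75). Primary screen of methionyl-tRNA synthetase; the read-out is not stated. The test concentration is not given. The values are filed as inhibition. Size under these conditions: about 68,000 compounds, about 24 of them at 50% or above in at least one test.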

Results are percentages, as filed.
How 0% and 100% were set is not recorded. Most values in the screen are low, and negative values occur.
This is an unselected part of the compounds tested.
A dash means the value is not listed here; it may have been measured.

compound	Mtb heat-shock	Mtb growth Cornell	LdMetRS
N#Cc1ccc(SCCOCCO)c(F)c1	-24.17	-2.716	19.27
COc1ccc(CN2CCn3cc(CNC(=O)C4CCC4)nc3C2)cc1	-	-	6.667
CC(CC(=O)N1CCCN(Cc2nccn2C)CC1)n1cccc1 (configuration not stated)	5.457	1.22	7.494
Cc1cc(C(=O)N(CC(=O)O)CC(C)C)ccc1F	-6.588	-5.739	13.35
Cc1nn(Cn2ccc(C(=O)N3CCCCCC3)n2)c(C)c1Cl	14.45	34.64	13.68
CNC(=O)Nc1cnc2cc(Cl)ccc2c1O	-27.08	-22.82	9.375
NC(=O)C1CN(C(=O)Nc2ccccc2SC2CCCC2)CCO1 (configuration not stated)	-5.683	18.89	21.11
COC(=O)[C@@H]1CCCN1C(=O)c1cn(CCCc2ccccc2)nn1	-18.05	30.16	12.36
Cc1sc(C(=O)NC(C)C)cc1S(=O)(=O)N(C)C	-6.539	43.7	15.41
Cc1ccc(-c2nc(CN3CCN(CC(=O)N(C)C)CC3)cs2)o1	2.31	-25.08	24.36
CCN1CCc2c(sc3c2C(=O)NC(/C=C/c2ccco2)N3)C1 (configuration not stated)	-25.76	-	-2.286
C1CN(Cc2noc(C3CC3)n2)CCN(Cc2nnc(C3CC3)o2)C1	9.368	-22.59	10.69
CCN1C[C@@H]2[C@@H](OC)CCN(S(=O)(=O)c3cccnc3)[C@@H]2C1	-	-	18.41
O=C(NC1CC1)N1CC[C@H](OCC2CC2)[C@@H]1Cc1cccnc1.O=C(O)C(F)(F)F	-23.31	10.32	-
CN(CCOc1cccc(F)c1)CC(=O)Nc1ccncc1	-17.11	22.43	15.79
O=C(c1cccnc1)N1CCc2ncnc(C3CCOC3)c2CC1 (configuration not stated)	-	-	11.5
CCN(C(=O)C1CCC1)C(c1cccnc1)c1ccc2c(c1)CCO2 (configuration not stated)	-18.32	-32.25	-4.255
COc1ncccc1CNC(=O)NC1CCOc2ccccc21 (configuration not stated)	4.374	10.9	8.571
Cc1nc(N2CCN(C(=O)c3ccccc3)CC2)c2c(n1)c(C)nn2C	17.2	-	12.86
c1ncc(-c2ccc(C3CNCCO3)nc2)cn1 (configuration not stated)	-	-	1.647
Cc1cnn(CCC(=O)N2C[C@H]3CC[C@@H]2CN(CC(=O)N(C)C)C3)c1	-	-	9.783
Cc1cc(C)nc(Nc2ccc(C3CCCCN3)cn2)n1 (configuration not stated)	12.4	-8.26	2.625
Cc1cc(CNC(=O)NC(C)c2ccncc2)no1 (configuration not stated)	-10.81	-39.37	7.874
CCC1CN(CC(=O)NCCN2CCCCCC2)c2ccccc2S1 (configuration not stated)	45.68	22.56	28.17
O=C(NCCC1CCN(CC(F)(F)F)CC1)C1COCCO1 (configuration not stated)	18.28	10.47	17.23
O=C(COCCOc1ccccc1)NC1CCN(c2ccccn2)CC1	5.476	12.38	-8.009
Cc1nn(C)c(C)c1C1CCCN1C(=O)c1ccc(C(N)=O)s1 (configuration not stated)	-28.01	-29.82	1.955
CCN(CC)C(=O)Cn1nc(C(C)C)c2cnn(C(C)(C)C)c2c1=O	-4.287	-9.33	5.944
Cn1ncc2c(NC3CN4CCC3CC4)nc(-c3ccncc3)nc21 (configuration not stated)	2.313	-	16.53
Fc1ccc(OC2CCN(CCn3cncn3)CC2)cc1	3.165	21.61	5.914
Cc1nn(C)c2nc(N(C)CCN(C)C)sc12	-14.25	25.86	14.04
Cc1ccc(CN2CC[C@H]3OCC[C@@H](c4nc(C)no4)[C@H]3C2)cc1	-	-	16.5
CNC(=O)NCC1CCC2(CCN(C(=O)c3ccccn3)CC2)CO1.O=C(O)C(F)(F)F (configuration not stated)	5.697	-5.084	-
CC(O)CN1CCN(C(=O)c2cc3ccccc3c(=O)[nH]2)CC1 (configuration not stated)	-26.28	1.522	9.859
CCc1cc(=O)[nH]c(-c2ccc(NC(C)COC)nc2)n1 (configuration not stated)	2.435	14.4	15.54
Clc1ccccc1C1(c2ccnc(-c3ncccn3)n2)CCNCC1	-0.2715	-50.35	15.75
CC(C)C[C@H](N)C(=O)N1CCSc2ccccc2C1	-	-	10.9
c1ccc(O[C@H]2C[C@@H]3CN(Cc4cnccn4)C[C@@H]3C2)cc1	-	-	17.42
CS(=O)(=O)N1CCCC(Cc2cnc(Br)cn2)C1 (configuration not stated)	0.2257	-24.97	-2.66
CC(CS(C)(=O)=O)N(C(=O)Nc1ccc(F)cc1F)C1CC1 (configuration not stated)	-2.438	6.428	10.34
[H][C@@]12C[C@H](C(=O)Nc3cccnc3)[C@@]([H])(CN(Cc3ccc(F)cc3)C1)O2	8.866	33.43	-
[H][C@@]12CCN(C[C@@H]1C(=O)Nc1ccccc1)[C@@H](Cn1cc(CCO)nn1)C2	-2.7	-	-
CNC(=O)c1sc2ccccc2c1C1CCN(c2cc(C)nc(C)n2)C1 (configuration not stated)	-25.43	-31.24	0
COCCN1CCC(NCc2ccc(F)cc2F)C1 (configuration not stated)	-11.84	-	3.977
CN(C)C1COC2(CCN(Cc3ccc4c(c3)OCO4)CC2)C1 (configuration not stated)	-	-	3.922
Cc1cccc2c1nc1n2[C@@H](CNC(=O)c2cncnc2)COC1	-29.85	20.55	12.54
O=C(Cc1cccnc1)N1CCC2(CC1)CCN(C1CCOCC1)C2	-	-	6.299
CN(C)C(=O)NCc1nnn2c1CN(CC1CCOCC1)CCC2.O=C(O)C(F)(F)F	-25.42	-8.661	-
CCOC(C)C(=O)Nc1ccc2c(ccn2CC)c1 (configuration not stated)	1.889	-	16.99
Cc1nc(CNCc2ccc(N3CCN(C)CC3)nc2)cs1	-32.22	20.34	4.082
CCN(CC1CN(Cc2ncc(C)o2)CCO1)c1cccnn1 (configuration not stated)	-1.896	1.377	17.56
c1cnn(CCC2CCCCN2Cc2cnc(C3CCCCC3)nc2)c1 (configuration not stated)	-7.239	-	3.2
CCC(CO)N(CC=C(C)C)Cc1ccsc1 (configuration not stated)	-19.56	-	14.17
Cc1ccccc1CC(=O)N1C[C@@H](O)[C@H](N2CCC(F)(F)CC2)C1	-11.87	-2.707	13.29
Cc1ncccc1CNCC1CCN(CCO)CC1	-11.2	-4.697	25.5
COc1cccc(-c2n[nH]cc2CNC2CCN(C3CC3)CC2)c1.Cl	-11.57	-	-
CC(C)c1ncc(Cl)c(C(=O)N2CCN3CCCCC3C2)n1 (configuration not stated)	-19.04	-21.91	5.075
c1ccc2c(c1)CN(c1ncnc3sc4c(c13)CCNC4)CCO2	1.883	-	10.67
CCOc1cccc(C2CC(=O)NCc3nc(N(C)C)sc32)c1 (configuration not stated)	-25.86	-31.64	8.333